The values that follow come from PubChem BioAssay AID2685 (National Center for Advancing Translational Sciences (NCATS), 2010).

The list shows a part of the results. The main result of the screen is listed elsewhere. These columns were measured beside it and carry no call. The list favours compounds with an active or inconclusive main result. Words in brackets tell the shape of the fitted curve; partial curves, single points and poor fits give uncertain potencies.

The assay is described as follows: qHTS Assay for Lipid Storage Modulators in Drosophila S3 Cells.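 For cell number change: cells counted by Cell Tracker Red CMTPX staining in the red channel.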 To be noted: BODIPY lipid droplet fluorescence, 18-24 h; for cell number change: measured here: cell count max response, cells fed with added oleic acid. A digest of the protocol: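 Drosophila S3 cells loaded with oleic acid (400 uM, as added) and compounds at several concentrations; lipid droplets imaged by 488-nm laser-scanning cytometry, 500–530 nm intensity and object ratio to cell channel. Percent activity normalized to 20 uM Triacsin C.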
In general terms: Quantitative high-throughput screening tests each substance at several concentrations.

Setting [1] is: measured here: lipid fluorescence (Fed channel) AC50, cells fed with added oleic acid.
Where [2] appears, read: measured here: cell number channel AC50, cells fed with added oleic acid.

Regarding `O=C(c1ccc(CS(=O)Cc2ccc(Cl)cc2)o1)N1CCN(c2ccccn2)CC1` (configuration not stated), the cell number change was -30.9%.
Broadly, the AC50 is the concentration giving half of the maximal activity seen. A higher AC50 goes with activity only at high concentration. Take `CCOc1ccc(NC(=S)N(CCCN2CCOCC2)Cc2cn(C)c3ccccc23)cc1`: the cell number change is 12%. Besides, under setting [1], the half-maximal activity concentration (AC50) was 0.082 µM [rising, full curve, poor fit].
On to `Cc1ccc2c(c1)N(CC(=O)NCC1CCCO1)C(=O)CO2` (configuration not stated), for which the cell number change turned out to be 10.9%.
As for `CCCNC(=O)COC(=O)c1c2c(nc3ccccc13)CCC2`, the cell number change was -33.3%. Moreover, the concentration at half-maximal activity (AC50) under setting [1] was 5.17 µM [rising, single point].
For `O=C(O)c1ccc(F)c(S(=O)(=O)Nc2ccccc2)c1`, the cell number change is -12.5%. Besides, the concentration at half-maximal activity (AC50) under setting [1] was 14.6 µM [falling, single point].
As for `CC1=C(C(=O)OCC2CCCO2)C(c2cccc(C(F)(F)F)c2)C2=C(CC(c3ccco3)CC2=O)N1` (configuration not stated), the cell number change was found to be 20.3%. Also, under setting [1], the half-maximal activity concentration (AC50) is 29.1 µM [rising, single point].
Take `O=C(Nc1cccc([N+](=O)[O-])c1)c1ccc(-c2ccccc2)cc1`: the cell number change is -37.1%. Besides, the half-maximal activity concentration (AC50) under setting [2] is 32.6 µM [falling, partial curve, poor fit]. Further, under setting [1], the AC50 was 16.4 µM [rising, partial curve].
`CCc1ccc2[nH]c(C(=O)Nc3ccc(F)cc3Br)cc2c1`: the cell number change is -13.9%. Also, the concentration at half-maximal activity (AC50) under setting [2] was 3.66 µM [falling, partial curve].
As for `O=C(Oc1nsnc1N1CCOCC1)c1ccccc1`, the cell number change was -22.6%. Further, the AC50 under setting [2] is 2.59 µM [falling, single point]. In addition, the half-maximal activity concentration (AC50) under setting [1] is 4.61 µM [falling, full curve].
Regarding `CCOC(=O)c1cccc(NC(=O)C(C)N2C(=O)c3ccccc3C2=O)c1` (configuration not stated), the cell number change was -32.1%. Also, the half-maximal activity concentration (AC50) under setting [2] was 6.51 µM [falling, full curve, poor fit]. In addition, the half-maximal activity concentration (AC50) under setting [1] is 0.00411 µM [rising, full curve, poor fit].
Regarding `COC(=O)c1c(NC(=O)C2CC=CCC2C(=O)O)sc2c1CCCCC2` (configuration not stated), the cell number change is -11.9%. Further, the half-maximal activity concentration (AC50) under setting [1] is 0.58 µM [rising, single point].
For the compound `Cc1cc(C)c2c(c1)NC(C(=O)O)C1CC=CC21` (configuration not stated), the cell number change was -0.525%. Further, the AC50 under setting [1] was 8.2 µM [rising, partial curve].
On to `CC1=C(C(N)=O)C(c2ccccc2)n2nc(-c3cccs3)nc2N1` (configuration not stated), for which the cell number change worked out at 10.7%. Also, the AC50 under setting [1] was 0.0517 µM [rising, full curve, poor fit].
`Cc1ccc(NCc2ccccc2O)cc1`: the cell number change is -30.1%. Further, the AC50 under setting [2] was 20.6 µM [falling, single point]. Besides, the concentration at half-maximal activity (AC50) under setting [1] is 20.6 µM [falling, partial curve].
As to `COc1ccc(C2(O)CCN(CCCCOc3ccccc3)CC2)cc1`, the cell number change came to 3.98%. The AC50 under setting [1] was 0.366 µM [falling, full curve].
Turning to `O=c1c2cccc(Cl)c2nc2n1Cc1ccccc1-2`, the cell number change is 5.08%. Besides, the AC50 under setting [1] was 0.259 µM [rising, partial curve, poor fit].
As to `Cn1c(-c2ccc(F)cc2)cnc1SCC(=O)Nc1ccccc1`, the cell number change was -25.6%. For the same compound, the AC50 under setting [1] is 16.4 µM [falling, single point].
In the case of `CCC(=O)Nc1ccc(NC(=O)c2ccco2)cc1`, the cell number change was determined as 4.01%. The AC50 under setting [2] was 0.82 µM [falling, full curve, poor fit]. In addition, under setting [1], the half-maximal activity concentration (AC50) is 1.46 µM [falling, partial curve].
`CC(C)=CCC1=C(OCC(=O)O)C(=O)c2ccccc2C1=O`: the cell number change is -38.7%. The half-maximal activity concentration (AC50) under setting [2] is 18.4 µM [falling, single point]. Besides, the AC50 under setting [1] is 18.4 µM [falling, single point].
As for `Cc1noc(N)c1C1(O)C(=O)N(C(C)C)c2ccccc21` (configuration not stated), the cell number change was -39.2%. The concentration at half-maximal activity (AC50) under setting [2] was 0.146 µM [falling, full curve, poor fit]. Moreover, under setting [1], the AC50 was 0.259 µM [falling, full curve].
Turning to `O=C(c1ccc2ncsc2c1)N1CCN(c2nc3ccccc3s2)CC1`, the cell number change was found to be 6.02%. Also, the AC50 under setting [1] is 1.64 µM [rising, partial curve].
For the compound `O=C(Nc1ccccc1Br)C(=O)N1CCCC1`, the cell number change amounted to 23.4%. In addition, the AC50 under setting [1] was 16.4 µM [rising, single point].
Regarding `Cc1ccc(S(=O)(=O)c2ccc([N+](=O)[O-])cn2)cc1`, the cell number change is -71.7%. Moreover, the half-maximal activity concentration (AC50) under setting [2] was 4.61 µM [falling, full curve]. The AC50 under setting [1] was 2.91 µM [falling, full curve].
As for `CSCC[C@H](NC(=O)c1ccc(Br)o1)c1nnc2ccccn12`, the cell number change is 12.5%.
On the same count and under the same terms, then `COc1cc2c(cc1OC)C(c1cccc(Br)c1)CC(=O)N2` (configuration not stated), with -18.3%; and `COc1cccc(-c2cc(C(=O)N3C(C)CCCC3C)no2)c1` (configuration not stated), with -4.34%.
On to `O=C(O)C1CCCN1c1ncccc1[N+](=O)[O-]` (configuration not stated), for which the cell number change worked out at 20.8%. Besides, the AC50 under setting [2] was 2.91 µM [falling, single point]. Besides, the AC50 under setting [1] is 2.31 µM [falling, partial curve].
With `CC1=CC2=NC(=O)/C(=C\c3ccc(-c4cccc(Cl)c4)o3)C(=N)N2O1`, the cell number change amounted to 2.25%. Further, under setting [1], the concentration at half-maximal activity (AC50) was 4.11 µM [rising, partial curve, poor fit].
Regarding `CN(C)c1ccnc(N(Cc2ccccc2)Cc2ccccc2)c1C#N`, the half-maximal activity concentration (AC50) under setting [1] was 5.8 µM [falling, single point].
As for `CC(C)(C)c1nc2ccccc2c(=O)n1N1C(=O)c2ccccc2C1=O`, the cell number change was determined as 8.68%. The AC50 under setting [1] is 0.164 µM [rising, full curve, poor fit].
As to `Cc1ccc(C(=O)NCCNC(=O)COc2ccc(C)c(C)c2)cn1`, the cell number change stood at 20.2%. Besides, the AC50 under setting [1] is 29.1 µM [rising, partial curve].
`CCOC(=O)c1ccc(NC(=O)Cn2nc(C)c3ccccc3c2=O)cc1`: the cell number change was found to be 9.85%. For the same compound, the half-maximal activity concentration (AC50) under setting [1] was 0.116 µM [rising, full curve, poor fit].
For `Cc1cc(=O)oc2c(C)c(OC(C)C(=O)NCCN3CCOCC3)ccc12` (configuration not stated), the cell number change is -4.01%.
Turning to `CN(C(=O)COC(=O)c1cc([N+](=O)[O-])ccc1N1CCCC1)C1CCS(=O)(=O)C1` (configuration not stated), the cell number change was 24.8%. Besides, the AC50 under setting [1] was 2.06 µM [falling, partial curve].
For the compound `CCN(CC)S(=O)(=O)c1ccc2c(c1)nc(CCC(=O)OCC(=O)Nc1cc(Cl)cc(Cl)c1)n2C`, the cell number change came out at 4.37%. Moreover, under setting [1], the AC50 is 2.91 µM [rising, full curve].
Regarding `Nc1nc2c(s1)CC(c1ccccc1)CC2` (configuration not stated), the cell number change is -14.4%. Under setting [2], the AC50 was 0.731 µM [falling, full curve]. Also, under setting [1], the AC50 was 6.51 µM [falling, single point].
`Cc1ccc(NC(=O)C(C)N=C2NS(=O)(=O)c3ccccc32)cc1` (configuration not stated): the cell number change is -15%.
As for `CC(C)c1onc(C(=O)N2CCN(Cc3ccccc3)CC2)c1[N+](=O)[O-]`, the cell number change is -0.624%. For the same compound, the AC50 under setting [1] is 0.13 µM [rising, partial curve, poor fit].
As to `COc1ccc(C)cc1NC(=O)CSc1nnc(CC(=O)Nc2cccc(C(F)(F)F)c2)n1C`, the cell number change came to 11.9%. Moreover, under setting [1], the AC50 was 0.58 µM [rising, single point].
Turning to `CC(=O)Nc1ccc(/C=C(\C#N)C(=O)NC2CCCCC2C)cc1` (configuration not stated), the cell number change is -63.5%. Moreover, the half-maximal activity concentration (AC50) under setting [1] is 32.6 µM [falling, partial curve, poor fit].
Take `O=C(Nc1ccc(F)c(Cl)c1)c1ccc2c(c1)OCO2`: the cell number change was -19.2%.
As for `Cc1cc(C)n(Cc2ccc(C(=O)Nc3cccc(Br)c3)o2)n1`, the cell number change was -32.3%. The AC50 under setting [2] was 29.1 µM [falling, single point]. Moreover, under setting [1], the AC50 was 29.1 µM [falling, single point].
On to `COC(=O)CN1C(=O)c2cccc3cccc1c23`, for which the cell number change was -18.8%. Moreover, under setting [1], the AC50 is 0.164 µM [rising, partial curve, poor fit].
For `Cn1c(-c2ccco2)n[nH]c1=S`, the cell number change was -24.6%. The AC50 under setting [2] is 2.59 µM [falling, full curve, poor fit]. Also, the AC50 under setting [1] was 4.11 µM [falling, full curve, poor fit].
Turning to `Cc1nn(-c2ccccc2)c(C)c1C(=O)NCc1ccccc1F`, the cell number change was -8.73%. In addition, the AC50 under setting [1] was 29.1 µM [rising, single point].
Consider `CC12C(=O)N(c3cccc(OC(=O)c4ccco4)c3)C(=O)C1C1c3ccccc3C2c2ccccc21` (configuration not stated), for which the cell number change was found to be 13%. The AC50 under setting [1] was 23.1 µM [rising, partial curve].
Turning to `CC(=O)OC1CC2(C)/C(=N\O)CCC2C2CCc3cc(O)ccc3C12` (configuration not stated), the cell number change is 11.7%. Under setting [1], the AC50 is 9.2 µM [rising, partial curve, poor fit].
Take `CC1(C(=O)N2CCN(c3ccc([N+](=O)[O-])cc3)CC2)CC1(Cl)Cl` (configuration not stated): the cell number change is 4.21%. Besides, under setting [1], the AC50 is 16.4 µM [falling, partial curve].
`CCCC(c1nnnn1CCC(C)C)N1CCC(C(N)=O)CC1` (configuration not stated): the cell number change was -19.5%.
The same measure, in the same setting: then `O=C1CN(C(=O)COc2ccc(F)cc2Br)c2ccccc2N1`, with -8.6%.
As to `CC1=CCC2C(=O)N(c3nc4ccccc4n3C)C(=O)C2C1` (configuration not stated), the cell number change is 34.7%. Further, the concentration at half-maximal activity (AC50) under setting [2] is 29.1 µM [rising, single point]. In addition, under setting [1], the concentration at half-maximal activity (AC50) is 29.1 µM [rising, single point].
With `Cc1cc(C(=O)N2CCc3ccccc3C2)on1`, the cell number change was 24.3%.
Turning to `O=C(COC(=O)/C=C/c1ccc(Br)o1)Nc1ccccc1F`, the cell number change is 164%. In addition, the AC50 under setting [1] is 16.4 µM [rising, partial curve].
For the compound `COc1ccc(/C=N/NC(=O)c2cccc(C(=O)N/N=C/c3ccc(OC)c(OC)c3)n2)cc1OC`, the cell number change is -5.56%. The concentration at half-maximal activity (AC50) under setting [1] was 0.103 µM [rising, full curve, poor fit].
For `Cn1c(SCc2ccc(Br)cc2)nnc1-c1ccccn1`, the cell number change came to 41.3%. Further, under setting [2], the AC50 was 2.91 µM [rising, full curve]. Further, the concentration at half-maximal activity (AC50) under setting [1] was 10.3 µM [rising, partial curve, poor fit].
Regarding `COc1ccc(N2CCN(C(=O)c3ccc(C)c(NC(=O)c4ccco4)c3)CC2)cc1`, the cell number change was 17%. Moreover, the AC50 under setting [1] is 18.4 µM [rising, single point].
Consider `CC1CCCC(C)N1C(=O)CSCc1ccc(Cl)cc1` (configuration not stated), for which the cell number change is -7.07%. For the same compound, the AC50 under setting [2] was 0.164 µM [falling, full curve]. For the same compound, the AC50 under setting [1] is 0.13 µM [falling, full curve, poor fit].
In the case of `COc1ccc(C2c3c(oc4ccccc4c3=O)C(=O)N2CC2CCCO2)cc1` (configuration not stated), the cell number change stood at 53.1%. The AC50 under setting [2] was 29.1 µM [rising, single point]. Also, the half-maximal activity concentration (AC50) under setting [1] is 0.651 µM [falling, single point].
`O=Cc1c[nH]c2ccc(OCc3ccccc3)cc12`: the cell number change was -12.2%. Under setting [1], the AC50 was 29.1 µM [rising, single point].
